PubChem BioAssay AID1508588 – Peter MacCallum Cancer Centre – 2020
Assay: 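Genome-wide search for knock-downs that heighten vemurafenib action in melanoma cells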 (primary screen). Cells: human WM266.4 melanoma cells (BRAF V600 mutant). Knock-down reagent: siRNA pool against human genes, 40 nM. Time to read-out: 96 h from transfection to read-out. Conditions: vemurafenib 300 nM (about IC25), added 48 h after transfection, for 48 h; comparison arm got DMSO vehicle only. Read-out: 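Cell gain (DAPI nuclei at end minus before drug, mean of two replicates) and medium lactate by absorbance per cell, both as ratio to non-targeting siRNA, also grouped into fold-change classes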. Reading the numbers: cell gain with vemurafenib: higher = more cell gain than with non-targeting siRNA; lactate per cell with vemurafenib: higher = more lactate made per cell. Hit rule: 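a knock-down counts as enhancing when its fold-change classes with vehicle and with vemurafenib, taken together, show a stronger drug effect on cell gain or lactate per cell; exact class pairs not stated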. Calls: active = enhances vemurafenib effect; inactive = no enhancement seen.
Here is one part, drawn at random, of about 18,000 reagents. Of all reagents, 790 (4.4%) are marked active. 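Calls rest on a combination of fold-change classes in drug and vehicle arms, not all shown here.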 Some reagents were tested in more than one well and are listed for each.

The first 5 entries, ahead of the listing:
| gene symbol | PubChem SID | cell gain with vemurafenib | lactate per cell with vemurafenib | call |
| --- | --- | --- | --- | --- |
| HIF3A | SID152154971 | 0.99 | 0.46 | inactive |
| MAGEH1 | SID135621721 | 0.8 | 1 | inactive |
| PSD2 | SID152147946 | 0.87 | 1.17 | inactive |
| ZNF454 | SID135623619 | 0.05 | 1.98 | inactive |
| ATMIN | SID152155352 | 0.25 | 1.41 | inactive |

Results, repeating the preview:
| gene symbol | PubChem SID | cell gain with vemurafenib | lactate per cell with vemurafenib | call |
| --- | --- | --- | --- | --- |
| HIF3A | SID152154971 | 0.99 | 0.46 | inactive |
| MAGEH1 | SID135621721 | 0.8 | 1 | inactive |
| PSD2 | SID152147946 | 0.87 | 1.17 | inactive |
| ZNF454 | SID135623619 | 0.05 | 1.98 | inactive |
| ATMIN | SID152155352 | 0.25 | 1.41 | inactive |
| CCDC24 | SID134320925 | 0.52 | 0.57 | inactive |
| SNURF | SID135622431 | 1.05 | 0.9 | inactive |
| DLX2 | SID135622209 | 0.72 | 0.86 | inactive |
| RAMP2 | SID152149075 | 0.96 | 0.74 | inactive |
| CIB2 | SID134316517 | 0.45 | 0.69 | active |
| NKRF | SID135625032 | 0.87 | 0.88 | inactive |
| SKA1 | SID152152929 | 0.8 | 0.59 | inactive |
| BAMBI | SID152147364 | 0.33 | 1.46 | inactive |
| CDY2B | SID135624493 | 0.33 | 1.4 | inactive |
| AP3S2 | SID135623288 | 0.83 | 0.94 | inactive |
| CYP26B1 | SID134313987 | 1.09 | 1.06 | inactive |
| FGF12 | SID152150268 | 0.98 | 1.5 | inactive |
| CPB2 | SID152151561 | 0.36 | 0.56 | inactive |
| SLC39A7 | SID152154023 | 0.28 | 0.88 | inactive |
| UQCRB | SID134319811 | 0.67 | 0.48 | active |
| TFRC | SID135620760 | 0.45 | 1.88 | inactive |
| GGT1 | SID152154620 | 0.47 | 1.6 | inactive |
| FN3KRP | SID56479164 | 0.32 | 1.21 | inactive |
| ATP6V0E2 | SID152154039 | 0.59 | 0.94 | inactive |
| B3GNT5 | SID134313826 | 0.81 | 0.4 | inactive |
| ANKRA2 | SID152153106 | 1.08 | 0.8 | inactive |
| CIRBP | SID134323920 | 0.65 | 0.99 | inactive |
| OR4F3 | SID134329882 | 0.77 | 0.43 | inactive |
| HORMAD2 | SID152154969 | 0.6 | 0.52 | inactive |
| C20orf144 | SID134319321 | 0.79 | 0.86 | inactive |
| CSNK2A2 | SID56478861 | 0.58 | 0.35 | active |
| AFG2B | SID134313743 | 0.86 | 1.27 | inactive |
| NLRP11 | SID152148380 | 0.42 | 0.66 | inactive |
| LBP | SID134314761 | 0.31 | 1.58 | inactive |
| MAPK8IP2 | SID152154486 | 0.56 | 1.33 | inactive |
| CPB1 | SID152150014 | 0.01 | 1.01 | inactive |
| DDIT4L | SID134319743 | 0.33 | 1.77 | inactive |
| GALM | SID135621564 | 0.87 | 0.52 | inactive |
| COL18A1-AS1 | SID134329375 | 0.18 | 1.36 | inactive |
| DDX28 | SID134321152 | 0.98 | 0.83 | inactive |
| SGCA | SID135622333 | 0.32 | 1.17 | inactive |
| HSD17B2 | SID134314214 | 0.62 | 1.27 | inactive |
| PKD2L2 | SID152147305 | 0.46 | 0.74 | inactive |
| PDK1 | SID56478951 | 1.02 | 0.46 | inactive |
| KLRF1 | SID135624026 | 0.53 | 1.07 | inactive |
| GASK1B | SID152146939 | 0.86 | 0.62 | inactive |
| RPL4 | SID134313797 | -0.06 | 2.83 | inactive |
| SLCO2B1 | SID135621370 | 0.53 | 0.88 | inactive |
| OR4F16 | SID134329897 | 0.79 | 0.24 | inactive |
| KHDC4 | SID152147509 | 0.3 | 0.66 | active |
| CPA5 | SID152147897 | 0.79 | 0.91 | inactive |
| RNF122 | SID134312191 | 1.03 | 0.65 | inactive |
| GIMAP4 | SID134323069 | 0.17 | 1.34 | inactive |
| RNF133 | SID134312276 | 0.93 | 0.84 | inactive |
| RNF133 | SID134312276 | 0.96 | 0.86 | inactive |
| NPY1R | SID134311111 | 0.58 | 0.55 | active |
| ASXL2 | SID135624321 | 0.47 | 1.58 | inactive |
